# Assay results taken from the supplement of paper PMC12067093, “Discovery and optimisation of a covalent ligand for TRIM25 and its application to targeted protein ubiquitination” (Chemical Science, 2025).
# Amino acid sequences for entries named in this document (tags omitted). A change or cut given only in a name is not applied to a line headed by its entry.
# UniProt Q92851: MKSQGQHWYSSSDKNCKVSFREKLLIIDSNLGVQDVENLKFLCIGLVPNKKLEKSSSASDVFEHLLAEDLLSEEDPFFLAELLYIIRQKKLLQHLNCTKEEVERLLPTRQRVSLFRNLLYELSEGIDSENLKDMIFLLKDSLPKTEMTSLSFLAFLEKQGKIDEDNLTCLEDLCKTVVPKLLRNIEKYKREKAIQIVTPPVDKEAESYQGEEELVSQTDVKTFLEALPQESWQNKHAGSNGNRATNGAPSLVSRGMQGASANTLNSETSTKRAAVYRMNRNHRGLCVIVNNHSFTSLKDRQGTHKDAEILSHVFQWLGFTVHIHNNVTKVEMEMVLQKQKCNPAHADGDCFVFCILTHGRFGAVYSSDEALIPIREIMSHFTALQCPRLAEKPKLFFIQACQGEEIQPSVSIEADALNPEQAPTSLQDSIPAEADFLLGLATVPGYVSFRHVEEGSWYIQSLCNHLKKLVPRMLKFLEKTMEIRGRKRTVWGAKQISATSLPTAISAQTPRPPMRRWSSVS
# UniProt P50991: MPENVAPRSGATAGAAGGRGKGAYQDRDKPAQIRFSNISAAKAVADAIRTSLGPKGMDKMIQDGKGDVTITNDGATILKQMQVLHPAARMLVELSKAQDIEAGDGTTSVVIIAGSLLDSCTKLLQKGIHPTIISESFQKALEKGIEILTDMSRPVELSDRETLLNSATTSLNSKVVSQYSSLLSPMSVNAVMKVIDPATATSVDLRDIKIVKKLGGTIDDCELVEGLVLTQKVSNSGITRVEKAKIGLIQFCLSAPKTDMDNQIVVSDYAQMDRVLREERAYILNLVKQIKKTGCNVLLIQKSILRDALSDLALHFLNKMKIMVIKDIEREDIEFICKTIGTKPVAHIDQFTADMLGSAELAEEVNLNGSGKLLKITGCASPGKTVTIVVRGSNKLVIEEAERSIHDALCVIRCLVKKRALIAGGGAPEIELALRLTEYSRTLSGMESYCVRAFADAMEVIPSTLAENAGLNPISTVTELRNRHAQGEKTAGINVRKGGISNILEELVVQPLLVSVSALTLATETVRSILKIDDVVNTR
# UniProt P49662: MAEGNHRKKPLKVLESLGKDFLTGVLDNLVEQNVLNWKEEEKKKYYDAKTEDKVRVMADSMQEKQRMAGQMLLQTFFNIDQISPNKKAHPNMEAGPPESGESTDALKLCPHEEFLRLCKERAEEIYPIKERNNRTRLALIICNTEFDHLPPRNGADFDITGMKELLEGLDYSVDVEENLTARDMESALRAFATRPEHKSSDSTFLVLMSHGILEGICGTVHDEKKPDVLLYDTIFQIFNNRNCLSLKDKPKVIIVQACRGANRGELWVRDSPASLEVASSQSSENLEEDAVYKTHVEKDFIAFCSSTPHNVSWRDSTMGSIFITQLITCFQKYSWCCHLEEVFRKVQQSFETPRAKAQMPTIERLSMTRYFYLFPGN
# UniProt P49368: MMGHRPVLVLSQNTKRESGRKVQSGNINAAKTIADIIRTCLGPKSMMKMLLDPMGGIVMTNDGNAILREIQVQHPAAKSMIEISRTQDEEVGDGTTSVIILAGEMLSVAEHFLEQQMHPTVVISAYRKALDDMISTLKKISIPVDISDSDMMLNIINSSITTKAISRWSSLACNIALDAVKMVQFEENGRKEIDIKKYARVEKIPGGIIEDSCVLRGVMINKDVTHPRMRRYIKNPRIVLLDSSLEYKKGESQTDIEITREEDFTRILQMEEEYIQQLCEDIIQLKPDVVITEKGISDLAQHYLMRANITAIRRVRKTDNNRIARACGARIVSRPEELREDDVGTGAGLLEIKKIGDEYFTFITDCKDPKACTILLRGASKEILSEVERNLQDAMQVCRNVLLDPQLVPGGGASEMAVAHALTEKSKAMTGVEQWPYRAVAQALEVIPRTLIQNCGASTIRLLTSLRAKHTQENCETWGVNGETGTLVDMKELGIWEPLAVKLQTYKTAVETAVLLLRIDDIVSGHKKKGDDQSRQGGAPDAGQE
# UniProt Q14790: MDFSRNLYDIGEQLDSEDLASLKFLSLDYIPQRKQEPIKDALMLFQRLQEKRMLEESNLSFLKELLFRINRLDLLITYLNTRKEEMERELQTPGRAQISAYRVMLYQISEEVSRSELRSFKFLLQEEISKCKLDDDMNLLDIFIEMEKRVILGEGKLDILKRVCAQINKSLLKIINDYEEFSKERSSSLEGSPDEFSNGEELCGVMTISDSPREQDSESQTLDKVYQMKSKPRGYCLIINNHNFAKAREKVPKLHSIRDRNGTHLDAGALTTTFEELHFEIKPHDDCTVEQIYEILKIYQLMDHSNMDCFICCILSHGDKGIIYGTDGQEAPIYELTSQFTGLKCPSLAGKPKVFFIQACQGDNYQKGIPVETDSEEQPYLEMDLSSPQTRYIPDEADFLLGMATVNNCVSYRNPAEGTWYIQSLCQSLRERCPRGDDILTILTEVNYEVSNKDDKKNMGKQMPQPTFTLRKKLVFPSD
# UniProt Q14781, whole entry: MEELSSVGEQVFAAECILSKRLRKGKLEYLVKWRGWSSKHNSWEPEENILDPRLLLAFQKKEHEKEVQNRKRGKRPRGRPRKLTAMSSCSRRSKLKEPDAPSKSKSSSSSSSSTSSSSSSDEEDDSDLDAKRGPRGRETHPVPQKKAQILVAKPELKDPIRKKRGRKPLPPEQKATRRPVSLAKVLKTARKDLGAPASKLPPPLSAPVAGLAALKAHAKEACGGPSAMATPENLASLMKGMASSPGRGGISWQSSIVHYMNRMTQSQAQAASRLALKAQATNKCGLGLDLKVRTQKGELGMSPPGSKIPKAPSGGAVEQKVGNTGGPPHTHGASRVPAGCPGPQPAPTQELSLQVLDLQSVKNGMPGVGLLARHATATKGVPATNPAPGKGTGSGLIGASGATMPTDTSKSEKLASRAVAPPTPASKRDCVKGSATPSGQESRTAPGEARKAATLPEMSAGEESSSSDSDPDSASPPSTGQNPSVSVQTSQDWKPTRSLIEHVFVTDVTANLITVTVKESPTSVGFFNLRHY
# UniProt P49589: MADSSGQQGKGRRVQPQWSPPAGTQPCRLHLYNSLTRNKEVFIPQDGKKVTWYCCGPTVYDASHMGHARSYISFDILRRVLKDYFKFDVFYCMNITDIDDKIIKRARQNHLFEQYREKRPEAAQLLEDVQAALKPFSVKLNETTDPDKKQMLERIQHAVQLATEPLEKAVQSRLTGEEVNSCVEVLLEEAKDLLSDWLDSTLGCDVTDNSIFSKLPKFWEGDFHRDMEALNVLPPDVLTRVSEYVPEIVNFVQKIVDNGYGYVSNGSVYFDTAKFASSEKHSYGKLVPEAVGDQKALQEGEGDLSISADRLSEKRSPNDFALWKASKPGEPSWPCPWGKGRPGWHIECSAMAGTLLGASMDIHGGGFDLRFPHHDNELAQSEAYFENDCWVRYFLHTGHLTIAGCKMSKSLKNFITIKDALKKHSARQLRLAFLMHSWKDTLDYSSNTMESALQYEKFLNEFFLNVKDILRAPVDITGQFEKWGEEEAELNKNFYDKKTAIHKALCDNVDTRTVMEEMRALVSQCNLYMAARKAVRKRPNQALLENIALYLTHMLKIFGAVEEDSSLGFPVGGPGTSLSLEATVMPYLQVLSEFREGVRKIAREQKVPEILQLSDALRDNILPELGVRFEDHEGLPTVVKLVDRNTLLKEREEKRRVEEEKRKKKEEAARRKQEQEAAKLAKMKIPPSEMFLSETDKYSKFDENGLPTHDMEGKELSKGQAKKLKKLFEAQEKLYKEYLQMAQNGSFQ
# UniProt P47756, whole entry, looked up: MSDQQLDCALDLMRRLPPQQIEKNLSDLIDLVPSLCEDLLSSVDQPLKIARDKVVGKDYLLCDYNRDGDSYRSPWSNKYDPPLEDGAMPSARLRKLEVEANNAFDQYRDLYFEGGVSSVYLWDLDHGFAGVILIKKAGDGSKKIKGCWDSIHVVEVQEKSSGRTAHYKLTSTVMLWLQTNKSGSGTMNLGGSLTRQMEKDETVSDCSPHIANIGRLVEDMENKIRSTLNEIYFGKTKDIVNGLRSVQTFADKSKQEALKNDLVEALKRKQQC
# UniProt P42575: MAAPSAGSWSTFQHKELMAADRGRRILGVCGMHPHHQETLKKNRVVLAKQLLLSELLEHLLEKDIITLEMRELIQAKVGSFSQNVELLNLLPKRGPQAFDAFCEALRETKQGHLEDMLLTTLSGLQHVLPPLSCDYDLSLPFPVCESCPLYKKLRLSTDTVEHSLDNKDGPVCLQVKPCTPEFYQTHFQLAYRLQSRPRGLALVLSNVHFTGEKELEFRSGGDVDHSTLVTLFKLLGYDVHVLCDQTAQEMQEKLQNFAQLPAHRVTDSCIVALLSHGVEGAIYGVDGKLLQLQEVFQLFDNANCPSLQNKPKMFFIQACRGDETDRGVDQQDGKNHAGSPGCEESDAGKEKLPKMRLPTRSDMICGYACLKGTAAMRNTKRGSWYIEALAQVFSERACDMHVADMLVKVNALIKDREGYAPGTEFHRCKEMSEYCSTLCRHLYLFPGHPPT
# UniProt P45973, whole entry, looked up: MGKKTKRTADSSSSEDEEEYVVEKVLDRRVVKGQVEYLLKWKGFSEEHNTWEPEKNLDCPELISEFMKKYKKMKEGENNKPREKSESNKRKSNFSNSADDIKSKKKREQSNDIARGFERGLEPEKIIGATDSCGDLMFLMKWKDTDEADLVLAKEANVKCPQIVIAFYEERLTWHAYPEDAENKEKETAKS
# UniProt P20248, whole entry, looked up: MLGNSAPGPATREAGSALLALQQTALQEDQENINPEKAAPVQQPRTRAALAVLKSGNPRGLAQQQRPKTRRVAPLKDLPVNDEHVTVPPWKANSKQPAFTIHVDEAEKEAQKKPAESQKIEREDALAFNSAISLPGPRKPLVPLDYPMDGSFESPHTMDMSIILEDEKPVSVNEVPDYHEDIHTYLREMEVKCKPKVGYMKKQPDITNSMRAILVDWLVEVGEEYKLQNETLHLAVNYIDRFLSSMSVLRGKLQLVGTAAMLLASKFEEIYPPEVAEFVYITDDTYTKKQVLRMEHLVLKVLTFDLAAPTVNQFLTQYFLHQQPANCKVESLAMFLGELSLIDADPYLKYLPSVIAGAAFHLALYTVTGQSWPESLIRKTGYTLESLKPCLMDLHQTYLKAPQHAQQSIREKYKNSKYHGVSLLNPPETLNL
# UniProt P16152: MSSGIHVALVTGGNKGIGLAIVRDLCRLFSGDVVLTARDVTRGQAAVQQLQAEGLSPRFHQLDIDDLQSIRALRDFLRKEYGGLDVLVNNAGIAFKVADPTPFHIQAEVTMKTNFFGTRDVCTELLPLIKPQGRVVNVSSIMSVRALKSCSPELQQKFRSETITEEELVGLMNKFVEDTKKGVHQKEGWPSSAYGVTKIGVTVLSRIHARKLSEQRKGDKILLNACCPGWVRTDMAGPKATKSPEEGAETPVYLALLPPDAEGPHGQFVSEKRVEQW
# UniProt P40123, whole entry, looked up: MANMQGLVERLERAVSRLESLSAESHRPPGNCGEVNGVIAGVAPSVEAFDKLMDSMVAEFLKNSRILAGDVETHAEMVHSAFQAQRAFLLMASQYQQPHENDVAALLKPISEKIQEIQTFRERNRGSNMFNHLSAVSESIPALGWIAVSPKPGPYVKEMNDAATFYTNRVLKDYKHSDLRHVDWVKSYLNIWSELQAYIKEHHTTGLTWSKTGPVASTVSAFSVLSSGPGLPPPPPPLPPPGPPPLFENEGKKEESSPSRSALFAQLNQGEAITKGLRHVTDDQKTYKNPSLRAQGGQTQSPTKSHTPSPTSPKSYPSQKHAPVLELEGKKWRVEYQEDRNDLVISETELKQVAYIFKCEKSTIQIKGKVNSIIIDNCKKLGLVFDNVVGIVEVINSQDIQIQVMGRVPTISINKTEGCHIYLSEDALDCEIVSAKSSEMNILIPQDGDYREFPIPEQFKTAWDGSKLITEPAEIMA
# UniProt P13501: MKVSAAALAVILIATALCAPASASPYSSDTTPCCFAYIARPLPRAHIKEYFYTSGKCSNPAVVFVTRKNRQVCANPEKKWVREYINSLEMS
# UniProt O75828: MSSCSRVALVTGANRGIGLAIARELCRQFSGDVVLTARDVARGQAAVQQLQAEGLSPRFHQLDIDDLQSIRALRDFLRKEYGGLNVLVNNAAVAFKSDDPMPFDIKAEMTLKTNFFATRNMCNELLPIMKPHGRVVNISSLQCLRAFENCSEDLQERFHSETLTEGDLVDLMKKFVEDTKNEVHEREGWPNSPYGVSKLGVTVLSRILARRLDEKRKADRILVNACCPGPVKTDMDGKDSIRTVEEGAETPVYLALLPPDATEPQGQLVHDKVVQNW
# UniProt Q8IVM0: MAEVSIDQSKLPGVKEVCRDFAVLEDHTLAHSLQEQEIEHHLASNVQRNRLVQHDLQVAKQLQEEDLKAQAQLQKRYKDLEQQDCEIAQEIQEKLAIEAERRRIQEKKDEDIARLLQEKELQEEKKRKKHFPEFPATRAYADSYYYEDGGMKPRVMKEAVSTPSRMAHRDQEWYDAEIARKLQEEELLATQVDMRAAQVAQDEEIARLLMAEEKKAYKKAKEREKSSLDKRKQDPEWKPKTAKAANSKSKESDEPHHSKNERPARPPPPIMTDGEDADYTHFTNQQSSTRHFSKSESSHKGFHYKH
# This is one part of the list.
# Compound: Cc1cc(ccc1-c1ccccc1)C(=O)N1CCCN(CC1)C(=O)CCl [compound 10]
# Experiment: probe-labelled cysteine peptide fold change vs DMSO (competition) (log2 fold change); higher = less target engagement (more negative = stronger competition)
# Settings: THP-1, incubation time: 4 h
# 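Further: competitive profiling in live THP-1 cells: cysteine peptides tagged with an iodoacetamide desthiobiotin (IA-DTB) probe, intensity after compound treatment relative to DMSO-treated cells.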
Target,probe-labelled cysteine peptide fold change (10 µM),probe-labelled cysteine peptide fold change (50 µM)
CASP10_Q92851_350_CNPAHADGDCFVFCILTHGR (UniProt Q92851),0.0154,0.0213
CCT4_P50991_337_EDIEFICK (UniProt P50991),0.474,0.355
CASP4_P49662_337_YSWCCHLEEVFRK (UniProt P49662),-0.1,-0.0368
CCT5_P48643_377_MLVIEQCK (UniProt P48643),0.122,0.328
CCT3_P49368_173_WSSLACNIALDAVK (UniProt P49368),0.321,0.129
CASP8_Q14790_409_YIPDEADFLLGMATVNNCVSYR (UniProt Q14790),0.0909,-0.301
CBX2_Q14781_89_KLTAMSSCSR (UniProt Q14781),-0.0937,-0.231
CAPZA2_P47755_141_EHYPNGVCTVYGK (UniProt P47755),0.0707,-0.113
CARS_P49589_405_YFLHTGHLTIAGCK (UniProt P49589),0.0479,0.0189
CARD9_Q9H257_329_EMFELQCLALRK (UniProt Q9H257),-0.28,-0.618
CARS_P49589_27_RVQPQWSPPAGTQPCR (UniProt P49589),-0.172,-0.0916
CAPZB_P47756_206_DETVSDCSPHIANIGR (UniProt P47756),-0.0201,0.00333
CBX4_O00257_185_EAPSPTCPDLGAK (UniProt O00257),-0.129,-0.0437
CASP2_P42575_440_EMSEYCSTLCR (UniProt P42575),-0.252,-0.704
CAT_P04040_232_LVNANGEAVYCK (UniProt P04040),0.122,0.0935
CBX5_P45973_133_IIGATDSCGDLMFLMK (UniProt P45973),-0.0852,0.00313
CAST_P20810_661_KPADDQDPIDALSGDLDSCPSTTETSQNTAK (UniProt P20810),0.116,0.0539

Target,probe-labelled cysteine peptide fold change (10 µM),probe-labelled cysteine peptide fold change (50 µM)
CBFA2T2_O43439_357_HLDHALNCIMEMVEK (UniProt O43439),0.0922,-0.14
CCNA2_P20248_390_TGYTLESLKPCLMDLHQTYLK (UniProt P20248),-0.0469,0.0777
CCT4_P50991_337_DIEREDIEFICK (UniProt P50991),-0.0766,0.195
CBR1_P16152_150_SCSPELQQK (UniProt P16152),-0.0783,-0.0457
CCAR2_Q8N163_754_VVTQNICQYR (UniProt Q8N163),-0.212,-0.0838
CCT3_P49368_398_NLQDAMQVCR (UniProt P49368),0.038,-0.14
CAST_P20810_381_SESELIDELSEDFDRSECK (UniProt P20810),-0.197,-0.0431
CASP8_Q14790_309_IYQLMDHSNMDCFICCILSHGDK (UniProt Q14790),0.0842,-0.247
CAP2_P40123_430_TEGCHIYLSEDALDCEIVSAK (UniProt P40123),-0.115,0.168
CCDC47_Q96A33_209_LNQENEHIYNLWCSGR (UniProt Q96A33),0.138,0.0901
CAPZB_P47756_62_DYLLCDYNR (UniProt P47756),-0.223,-0.0616
CCL5_P13501_57_CSNPAVVFVTR (UniProt P13501),-0.208,-0.165
CBR3_O75828_227_ILVNACCPGPVK (UniProt O75828),-0.284,-0.265
CCDC50_Q8IVM0_85_DLEQQDCEIAQEIQEK (UniProt Q8IVM0),-0.212,-0.214
CCT4_P50991_450_TLSGMESYCVR (UniProt P50991),0.158,-0.0266
CCT4_P50991_221_LGGTIDDCELVEGLVLTQK (UniProt P50991),-0.108,0.263

# Some values from the entries so far.
# probe-labelled cysteine peptide fold change (10 µM), CASP2_P42575_440_EMSEYCSTLCR (UniProt P42575) is entered as -0.252
# probe-labelled cysteine peptide fold change (10 µM), CASP8_Q14790_309_IYQLMDHSNMDCFICCILSHGDK (UniProt Q14790) is entered as 0.0842
